Laboratory results taken from the supplement of paper PMC12823440, “Inhibitors supercharge kinase turnover through native proteolytic circuits” (Nature, 2025).
Structures can show the parent of a compound that is named as a salt. The list shows a part of the results. Hit calls seldom repeat between salt and free forms of one compound.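 Kinases were expressed as nanoluciferase fusions in K562 cells and luminescence was read every 4 h between 2 and 18 h as percent of control, DMSO set to 100% and a positive control to 0%. A time point counts as decreased when the signal drops significantly (2 sigma). The hit call is the authors' own, does not follow from the count of time points alone, and its rule is not shown.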

By UniProt entry, the sequences of proteins in these tests, tags left out.
UniProt P29317, whole entry: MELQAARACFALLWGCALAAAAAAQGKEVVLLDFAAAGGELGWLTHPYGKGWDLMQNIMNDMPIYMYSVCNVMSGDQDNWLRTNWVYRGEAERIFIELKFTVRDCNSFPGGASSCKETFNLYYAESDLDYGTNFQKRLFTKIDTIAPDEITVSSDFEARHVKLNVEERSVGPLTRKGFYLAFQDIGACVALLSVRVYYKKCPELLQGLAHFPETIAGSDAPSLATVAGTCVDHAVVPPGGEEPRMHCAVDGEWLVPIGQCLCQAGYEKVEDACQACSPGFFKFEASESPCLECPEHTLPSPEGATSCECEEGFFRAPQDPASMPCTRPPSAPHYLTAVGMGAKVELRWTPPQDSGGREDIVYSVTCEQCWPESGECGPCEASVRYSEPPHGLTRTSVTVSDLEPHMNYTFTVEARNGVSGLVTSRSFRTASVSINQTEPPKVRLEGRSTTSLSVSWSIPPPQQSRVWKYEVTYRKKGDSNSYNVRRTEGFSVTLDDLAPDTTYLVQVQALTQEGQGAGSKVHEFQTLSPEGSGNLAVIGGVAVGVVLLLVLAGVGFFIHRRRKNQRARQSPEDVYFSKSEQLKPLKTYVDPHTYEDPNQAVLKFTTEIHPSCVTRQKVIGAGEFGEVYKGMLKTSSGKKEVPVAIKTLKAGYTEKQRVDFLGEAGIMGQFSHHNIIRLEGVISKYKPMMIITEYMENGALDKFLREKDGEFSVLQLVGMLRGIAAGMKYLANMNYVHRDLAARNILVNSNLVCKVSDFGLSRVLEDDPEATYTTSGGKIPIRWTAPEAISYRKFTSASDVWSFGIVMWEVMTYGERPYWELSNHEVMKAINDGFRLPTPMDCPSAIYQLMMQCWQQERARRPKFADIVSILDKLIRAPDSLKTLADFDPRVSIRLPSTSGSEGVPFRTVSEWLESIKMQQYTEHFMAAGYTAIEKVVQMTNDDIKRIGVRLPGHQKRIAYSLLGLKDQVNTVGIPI
UniProt P21860, whole entry: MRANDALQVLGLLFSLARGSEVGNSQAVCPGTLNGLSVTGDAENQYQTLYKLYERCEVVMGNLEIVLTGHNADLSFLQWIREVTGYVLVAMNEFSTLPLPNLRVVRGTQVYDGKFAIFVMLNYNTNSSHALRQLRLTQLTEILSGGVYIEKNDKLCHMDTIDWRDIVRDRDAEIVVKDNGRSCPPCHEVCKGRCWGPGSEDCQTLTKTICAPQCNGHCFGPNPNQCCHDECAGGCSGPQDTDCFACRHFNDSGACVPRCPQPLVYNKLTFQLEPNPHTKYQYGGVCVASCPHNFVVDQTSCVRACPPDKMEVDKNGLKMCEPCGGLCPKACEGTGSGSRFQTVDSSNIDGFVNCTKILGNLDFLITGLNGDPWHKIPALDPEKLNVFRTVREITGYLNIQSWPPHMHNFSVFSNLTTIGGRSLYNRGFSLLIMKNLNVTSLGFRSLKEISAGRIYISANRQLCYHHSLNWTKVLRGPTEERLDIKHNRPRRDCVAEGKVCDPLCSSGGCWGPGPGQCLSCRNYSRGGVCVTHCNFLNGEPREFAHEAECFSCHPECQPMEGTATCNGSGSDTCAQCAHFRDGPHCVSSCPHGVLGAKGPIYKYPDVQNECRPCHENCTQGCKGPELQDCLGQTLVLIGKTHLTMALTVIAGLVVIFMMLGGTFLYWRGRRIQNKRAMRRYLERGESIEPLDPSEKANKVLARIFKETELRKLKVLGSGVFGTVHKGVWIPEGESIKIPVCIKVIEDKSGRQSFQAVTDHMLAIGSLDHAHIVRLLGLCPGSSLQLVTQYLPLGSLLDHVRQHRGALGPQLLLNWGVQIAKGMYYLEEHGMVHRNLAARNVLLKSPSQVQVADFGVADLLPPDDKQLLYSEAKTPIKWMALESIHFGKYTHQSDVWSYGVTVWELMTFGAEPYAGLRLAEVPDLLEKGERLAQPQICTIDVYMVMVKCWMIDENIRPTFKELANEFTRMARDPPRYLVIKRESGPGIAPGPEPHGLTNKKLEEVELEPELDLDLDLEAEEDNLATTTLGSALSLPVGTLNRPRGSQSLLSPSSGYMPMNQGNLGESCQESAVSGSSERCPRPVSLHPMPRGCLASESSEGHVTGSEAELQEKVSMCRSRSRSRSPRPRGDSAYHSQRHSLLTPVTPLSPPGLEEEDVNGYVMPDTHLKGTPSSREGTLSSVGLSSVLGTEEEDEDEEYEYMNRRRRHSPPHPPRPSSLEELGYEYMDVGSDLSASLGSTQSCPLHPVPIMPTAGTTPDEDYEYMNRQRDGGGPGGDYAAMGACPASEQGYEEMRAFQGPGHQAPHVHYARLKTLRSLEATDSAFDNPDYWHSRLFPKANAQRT
UniProt Q15303, whole entry R711C: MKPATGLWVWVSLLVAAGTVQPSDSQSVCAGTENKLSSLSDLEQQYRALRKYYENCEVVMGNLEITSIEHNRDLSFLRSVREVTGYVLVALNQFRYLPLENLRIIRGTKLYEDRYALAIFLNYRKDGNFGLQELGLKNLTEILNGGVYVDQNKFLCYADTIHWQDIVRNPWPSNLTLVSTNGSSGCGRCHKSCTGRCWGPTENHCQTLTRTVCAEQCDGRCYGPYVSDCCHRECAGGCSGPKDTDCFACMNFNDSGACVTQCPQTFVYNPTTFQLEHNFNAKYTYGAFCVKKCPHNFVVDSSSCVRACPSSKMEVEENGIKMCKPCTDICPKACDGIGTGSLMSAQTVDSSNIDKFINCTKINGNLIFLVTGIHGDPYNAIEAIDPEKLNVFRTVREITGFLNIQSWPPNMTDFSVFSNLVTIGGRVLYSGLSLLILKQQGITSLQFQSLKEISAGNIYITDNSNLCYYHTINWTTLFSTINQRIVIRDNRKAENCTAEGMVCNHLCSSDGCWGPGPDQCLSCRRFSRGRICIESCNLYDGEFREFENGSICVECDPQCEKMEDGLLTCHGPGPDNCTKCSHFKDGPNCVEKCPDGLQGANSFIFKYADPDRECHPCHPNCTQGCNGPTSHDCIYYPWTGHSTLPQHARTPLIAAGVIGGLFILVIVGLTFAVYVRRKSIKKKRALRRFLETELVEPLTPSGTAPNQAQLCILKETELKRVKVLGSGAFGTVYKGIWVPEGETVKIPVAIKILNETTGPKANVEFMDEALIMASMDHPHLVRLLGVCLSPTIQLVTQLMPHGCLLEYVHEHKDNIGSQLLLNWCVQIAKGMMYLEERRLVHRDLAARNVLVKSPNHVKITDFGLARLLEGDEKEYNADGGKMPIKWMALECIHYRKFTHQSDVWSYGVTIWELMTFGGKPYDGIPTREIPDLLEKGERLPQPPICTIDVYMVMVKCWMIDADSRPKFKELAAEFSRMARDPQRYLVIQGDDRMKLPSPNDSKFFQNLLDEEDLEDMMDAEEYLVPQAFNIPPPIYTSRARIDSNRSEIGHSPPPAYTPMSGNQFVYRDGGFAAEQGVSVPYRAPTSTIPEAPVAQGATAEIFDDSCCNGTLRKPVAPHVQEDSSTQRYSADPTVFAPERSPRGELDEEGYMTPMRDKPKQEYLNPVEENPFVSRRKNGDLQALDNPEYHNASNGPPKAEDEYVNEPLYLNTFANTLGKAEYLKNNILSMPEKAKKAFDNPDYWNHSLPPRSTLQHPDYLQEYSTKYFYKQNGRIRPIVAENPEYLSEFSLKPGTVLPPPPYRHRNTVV

Tests used:
Test in all cases: kinase-Nluc reporter destabilization hit call (1 = scored as downregulated) (binary); higher = compound decreases kinase abundance
Conditions in all cases: K562; 2-18 h
EGFR = EGFR (UniProt P00533)
EGFR_G719S = EGFR_G719S (UniProt P00533)
EGFR_G719S_T790M = EGFR_G719S_T790M (UniProt P00533)
EGFR_L718V = EGFR_L718V (UniProt P00533)
EGFR_L858R = EGFR_L858R (UniProt P00533)
EGFR_L861Q = EGFR_L861Q (UniProt P00533)
EGFR_T790M = EGFR_T790M (UniProt P00533)
EPHA2 = EPHA2 (UniProt P29317)
ERBB3 = ERBB3 (UniProt P21860)
[1] = target: ERBB4_R711C (clone: ERBB4_mut) (UniProt Q15303)

Measured: kinase-Nluc reporter destabilization hit call

O=C(Nc1cc(C(F)(F)F)ccc1N1CCN(Cc2ccccn2)CC1)c1ccc(-c2ccncc2)o1 (10 µM)
inactive: EGFR 0 | EGFR_G719S 0 | EGFR_G719S_T790M 0 | EGFR_L718V 0 | EGFR_L858R 0 | EGFR_L861Q 0 | EGFR_T790M 0 | EPHA2 = 0 | ERBB3 = 0 | [1] 0

CCn1cc(-c2ccnc3[nH]c(-c4cccc(CN(C)C)c4)cc23)c(-c2ccc(NC(=O)N(C)C)cc2)n1 (2.5 µM)
inactive: EGFR 0 | EGFR_G719S 0 | EGFR_G719S_T790M 0 | EGFR_L718V 0 | EGFR_L858R 0 | EGFR_L861Q 0 | EGFR_T790M 0 | EPHA2 = 0 | ERBB3 = 0 | [1] 0

CC(C)(C)S(=O)(=O)c1cc2c(Nc3ccc4scnc4c3)ncnc2cc1OCCO (2.5 µM)
inactive: EGFR 0 | EGFR_G719S 0 | EGFR_G719S_T790M 0 | EGFR_L718V 0 | EGFR_L858R 0 | EGFR_L861Q 0 | EGFR_T790M 0 | EPHA2 = 0 | ERBB3 = 0 | [1] 0

O=C(c1ccc(-c2ccc(Cl)cc2)o1)N(Cc1ccccn1)c1ccc(N2CCNCC2)cc1 [MK2-IN-1 (hydrochloride)] (10 µM)
inactive: EGFR 0 | EGFR_G719S 0 | EGFR_G719S_T790M 0 | EGFR_L718V 0 | EGFR_L858R 0 | EGFR_L861Q 0 | EGFR_T790M 0 | EPHA2 = 0 | ERBB3 = 0

C=CC(=O)N1CCC[C@@H](n2nc(-c3ccc(Oc4ccccc4)cc3)c(C(N)=O)c2N)C1 [Btk inhibitor 2] (10 µM)
inactive: EGFR 0 | EGFR_G719S 0 | EGFR_G719S_T790M 0 | EGFR_L718V 0 | EGFR_L858R 0 | EGFR_L861Q 0 | EGFR_T790M 0 | EPHA2 = 0 | ERBB3 = 0 | [1] 0

An excerpt from above in order of count of non-hydrogen atoms, rising.
O=C(c1ccc(-c2ccc(Cl)cc2)o1)N(Cc1ccccn1)c1ccc(N2CCNCC2)cc1 [MK2-IN-1 (hydrochloride)] (10 µM)
inactive: EGFR 0 | EGFR_G719S 0 | EGFR_G719S_T790M 0 | EGFR_L718V 0 | EGFR_L858R 0 | EGFR_L861Q 0 | EGFR_T790M 0 | EPHA2 = 0 | ERBB3 = 0

O=C(Nc1cc(C(F)(F)F)ccc1N1CCN(Cc2ccccn2)CC1)c1ccc(-c2ccncc2)o1 (10 µM)
inactive: EGFR 0 | EGFR_G719S 0 | EGFR_G719S_T790M 0 | EGFR_L718V 0 | EGFR_L858R 0 | EGFR_L861Q 0 | EGFR_T790M 0 | EPHA2 = 0 | ERBB3 = 0 | [1] 0

CCn1cc(-c2ccnc3[nH]c(-c4cccc(CN(C)C)c4)cc23)c(-c2ccc(NC(=O)N(C)C)cc2)n1 (2.5 µM)
inactive: EGFR 0 | EGFR_G719S 0 | EGFR_G719S_T790M 0 | EGFR_L718V 0 | EGFR_L858R 0 | EGFR_L861Q 0 | EGFR_T790M 0 | EPHA2 = 0 | ERBB3 = 0 | [1] 0

(continued)

Cc1ccc(F)c(NC(=O)Nc2ccc(-c3cccc4[nH]nc(N)c34)cc2)c1 [Linifanib] (2.5 µM)
inactive: EGFR 0 | EGFR_G719S 0 | EGFR_G719S_T790M 0 | EGFR_L718V 0 | EGFR_L858R 0 | EGFR_L861Q 0 | EGFR_T790M 0 | EPHA2 = 0 | ERBB3 = 0 | [1] 0

CN1CCN(c2ccc(Nc3cc(-c4cccc(-n5ccc6cc(C7CC7)cc(F)c6c5=O)c4CO)cn(C)c3=O)nc2)CC1 (2.5 µM)
inactive: EGFR 0 | EGFR_G719S 0 | EGFR_G719S_T790M 0 | EGFR_L718V 0 | EGFR_L858R 0 | EGFR_L861Q 0 | EGFR_T790M 0 | EPHA2 = 0 | ERBB3 = 0 | [1] 0

CN1CCN(C(=O)c2ccc(-c3ccc4c(C=O)c(O)ccc4c3)s2)CC1 (2.5 µM)
inactive: EGFR 0 | EGFR_G719S 0 | EGFR_G719S_T790M 0 | EGFR_L718V 0 | EGFR_L858R 0 | EGFR_L861Q 0 | EGFR_T790M 0 | EPHA2 = 0 | ERBB3 = 0 | [1] 0

COc1ccc(Oc2cc(NCCC(F)(F)F)c3ncc(-c4ccc(C(=O)NC5CC5)c(C)c4)n3n2)c(F)c1F (2.5 µM)
inactive: EGFR 0 | EGFR_G719S 0 | EGFR_G719S_T790M 0 | EGFR_L718V 0 | EGFR_L858R 0 | EGFR_L861Q 0 | EGFR_T790M 0 | EPHA2 = 0 | ERBB3 = 0 | [1] 0

CC(C)c1ccc2oc3nc(N)c(C(=O)O)cc3c(=O)c2c1 [Amlexanox] (10 µM)
inactive: EGFR 0 | EGFR_G719S 0 | EGFR_G719S_T790M 0 | EGFR_L718V 0 | EGFR_L858R 0 | EGFR_L861Q 0 | EGFR_T790M 0 | EPHA2 = 0 | ERBB3 = 0 | [1] 0

CC#CC(=O)N[C@H]1CCCN(c2c(F)cc(C(N)=O)c3[nH]c(C)c(C)c23)C1 [Branebrutinib] (10 µM)
inactive: EGFR 0 | EGFR_G719S 0 | EGFR_G719S_T790M 0 | EGFR_L718V 0 | EGFR_L858R 0 | EGFR_L861Q 0 | EGFR_T790M 0 | EPHA2 = 0 | ERBB3 = 0 | [1] 0

O=C1Nc2ccccc2/C1=C/c1ccc(F)cc1 (10 µM)
inactive: EGFR 0 | EGFR_G719S 0 | EGFR_G719S_T790M 0 | EGFR_L718V 0 | EGFR_L858R 0 | EGFR_L861Q 0 | EGFR_T790M 0 | EPHA2 = 0 | ERBB3 = 0 | [1] 0

NS(=O)(=O)c1ccc(Nc2nc(OCC3CCCCC3)c3[nH]cnc3n2)cc1 (10 µM)
inactive: EGFR 0 | EGFR_G719S 0 | EGFR_G719S_T790M 0 | EGFR_L718V 0 | EGFR_L858R 0 | EGFR_L861Q 0 | EGFR_T790M 0 | EPHA2 = 0 | ERBB3 = 0 | [1] 0

Brc1c(Br)c(Br)c2n[nH]nc2c1Br (10 µM)
inactive: EGFR 0 | EGFR_G719S 0 | EGFR_G719S_T790M 0 | EGFR_L718V 0 | EGFR_L858R 0 | EGFR_L861Q 0 | EGFR_T790M 0 | EPHA2 = 0 | ERBB3 = 0 | [1] 0

CN(C)CCOc1ccc(-c2nc(-c3ccncc3)c(-c3ccc4c(c3)CC/C4=N\O)[nH]2)cc1 (10 µM)
inactive: EGFR 0 | EGFR_G719S 0 | EGFR_G719S_T790M 0 | EGFR_L718V 0 | EGFR_L858R 0 | EGFR_L861Q 0 | EGFR_T790M 0 | EPHA2 = 0 | ERBB3 = 0 | [1] 0
